Reference: the supplement of paper PMC10849652
The other results are listed elsewhere or left out.

By UniProt entry, the sequences of proteins in these tests, tags left out. Where a name states a change or a piece, a line headed by the entry shows the natural chain unless it says otherwise.
UniProt P57772: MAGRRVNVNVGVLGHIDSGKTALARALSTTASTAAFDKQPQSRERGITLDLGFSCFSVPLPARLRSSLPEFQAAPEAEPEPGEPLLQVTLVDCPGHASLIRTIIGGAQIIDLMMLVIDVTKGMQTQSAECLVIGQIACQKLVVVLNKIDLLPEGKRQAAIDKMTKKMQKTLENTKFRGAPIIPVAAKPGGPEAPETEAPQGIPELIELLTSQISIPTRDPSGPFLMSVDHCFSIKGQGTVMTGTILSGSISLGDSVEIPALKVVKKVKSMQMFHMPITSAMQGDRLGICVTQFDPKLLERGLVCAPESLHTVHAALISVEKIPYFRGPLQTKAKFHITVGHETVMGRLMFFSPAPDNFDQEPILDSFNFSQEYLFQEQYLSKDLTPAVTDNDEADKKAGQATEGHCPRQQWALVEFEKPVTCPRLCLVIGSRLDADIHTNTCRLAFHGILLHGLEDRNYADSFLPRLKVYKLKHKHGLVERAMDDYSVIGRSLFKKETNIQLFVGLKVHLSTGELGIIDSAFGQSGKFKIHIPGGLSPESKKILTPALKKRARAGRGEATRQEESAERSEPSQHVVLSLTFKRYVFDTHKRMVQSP
UniProt O95620: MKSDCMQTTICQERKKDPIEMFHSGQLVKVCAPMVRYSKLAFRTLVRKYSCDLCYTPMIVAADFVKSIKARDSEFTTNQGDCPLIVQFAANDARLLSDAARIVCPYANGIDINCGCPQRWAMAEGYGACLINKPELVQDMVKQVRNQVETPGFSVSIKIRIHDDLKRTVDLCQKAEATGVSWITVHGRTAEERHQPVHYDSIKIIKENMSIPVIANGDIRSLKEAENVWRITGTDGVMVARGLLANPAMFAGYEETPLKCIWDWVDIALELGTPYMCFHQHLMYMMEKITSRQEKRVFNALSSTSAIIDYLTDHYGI
UniProt Q9NTX5: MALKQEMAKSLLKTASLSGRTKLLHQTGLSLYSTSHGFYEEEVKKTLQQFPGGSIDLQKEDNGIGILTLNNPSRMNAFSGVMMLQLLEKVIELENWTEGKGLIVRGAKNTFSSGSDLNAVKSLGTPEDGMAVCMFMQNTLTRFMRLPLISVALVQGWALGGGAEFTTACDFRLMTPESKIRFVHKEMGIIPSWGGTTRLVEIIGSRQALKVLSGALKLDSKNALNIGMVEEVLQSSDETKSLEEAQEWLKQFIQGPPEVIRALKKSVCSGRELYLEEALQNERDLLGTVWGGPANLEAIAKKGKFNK
UniProt Q01658: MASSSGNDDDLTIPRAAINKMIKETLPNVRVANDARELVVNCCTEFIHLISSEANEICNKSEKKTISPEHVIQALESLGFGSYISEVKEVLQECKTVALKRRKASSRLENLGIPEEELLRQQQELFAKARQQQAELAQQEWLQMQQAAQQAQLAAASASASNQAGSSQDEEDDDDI
UniProt Q96F86: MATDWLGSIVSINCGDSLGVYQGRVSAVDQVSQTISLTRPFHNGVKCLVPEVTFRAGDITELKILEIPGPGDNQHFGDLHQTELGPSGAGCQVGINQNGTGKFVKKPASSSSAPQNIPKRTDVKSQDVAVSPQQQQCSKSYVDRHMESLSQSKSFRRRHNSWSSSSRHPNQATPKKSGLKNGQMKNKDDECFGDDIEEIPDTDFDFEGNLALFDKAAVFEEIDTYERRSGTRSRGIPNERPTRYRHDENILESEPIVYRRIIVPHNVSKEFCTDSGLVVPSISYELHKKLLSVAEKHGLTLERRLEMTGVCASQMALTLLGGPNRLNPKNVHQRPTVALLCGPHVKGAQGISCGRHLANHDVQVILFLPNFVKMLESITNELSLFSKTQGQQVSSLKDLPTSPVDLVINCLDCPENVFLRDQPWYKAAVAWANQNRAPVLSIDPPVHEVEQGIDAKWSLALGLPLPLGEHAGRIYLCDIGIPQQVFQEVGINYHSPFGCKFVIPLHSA
UniProt Q96C19: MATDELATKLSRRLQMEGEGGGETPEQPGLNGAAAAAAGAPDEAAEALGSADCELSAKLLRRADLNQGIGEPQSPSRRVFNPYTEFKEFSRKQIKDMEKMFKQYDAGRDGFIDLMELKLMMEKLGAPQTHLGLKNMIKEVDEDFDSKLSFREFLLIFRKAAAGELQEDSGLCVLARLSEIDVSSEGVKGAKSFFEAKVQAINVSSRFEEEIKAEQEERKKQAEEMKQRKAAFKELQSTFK
UniProt O43237, whole entry, looked up: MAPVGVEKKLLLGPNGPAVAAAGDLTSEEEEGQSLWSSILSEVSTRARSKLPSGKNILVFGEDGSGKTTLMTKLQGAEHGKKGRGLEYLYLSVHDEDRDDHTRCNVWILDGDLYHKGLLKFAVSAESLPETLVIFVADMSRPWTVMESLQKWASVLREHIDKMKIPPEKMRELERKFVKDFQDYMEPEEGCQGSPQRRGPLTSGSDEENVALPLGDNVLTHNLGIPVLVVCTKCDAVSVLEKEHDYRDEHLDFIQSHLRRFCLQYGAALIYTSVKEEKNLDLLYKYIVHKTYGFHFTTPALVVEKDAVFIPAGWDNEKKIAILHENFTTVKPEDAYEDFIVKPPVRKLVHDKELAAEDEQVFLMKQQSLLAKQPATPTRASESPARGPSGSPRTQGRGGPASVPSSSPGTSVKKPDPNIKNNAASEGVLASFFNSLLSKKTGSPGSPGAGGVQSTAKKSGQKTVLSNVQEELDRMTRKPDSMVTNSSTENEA
UniProt Q6P2E9: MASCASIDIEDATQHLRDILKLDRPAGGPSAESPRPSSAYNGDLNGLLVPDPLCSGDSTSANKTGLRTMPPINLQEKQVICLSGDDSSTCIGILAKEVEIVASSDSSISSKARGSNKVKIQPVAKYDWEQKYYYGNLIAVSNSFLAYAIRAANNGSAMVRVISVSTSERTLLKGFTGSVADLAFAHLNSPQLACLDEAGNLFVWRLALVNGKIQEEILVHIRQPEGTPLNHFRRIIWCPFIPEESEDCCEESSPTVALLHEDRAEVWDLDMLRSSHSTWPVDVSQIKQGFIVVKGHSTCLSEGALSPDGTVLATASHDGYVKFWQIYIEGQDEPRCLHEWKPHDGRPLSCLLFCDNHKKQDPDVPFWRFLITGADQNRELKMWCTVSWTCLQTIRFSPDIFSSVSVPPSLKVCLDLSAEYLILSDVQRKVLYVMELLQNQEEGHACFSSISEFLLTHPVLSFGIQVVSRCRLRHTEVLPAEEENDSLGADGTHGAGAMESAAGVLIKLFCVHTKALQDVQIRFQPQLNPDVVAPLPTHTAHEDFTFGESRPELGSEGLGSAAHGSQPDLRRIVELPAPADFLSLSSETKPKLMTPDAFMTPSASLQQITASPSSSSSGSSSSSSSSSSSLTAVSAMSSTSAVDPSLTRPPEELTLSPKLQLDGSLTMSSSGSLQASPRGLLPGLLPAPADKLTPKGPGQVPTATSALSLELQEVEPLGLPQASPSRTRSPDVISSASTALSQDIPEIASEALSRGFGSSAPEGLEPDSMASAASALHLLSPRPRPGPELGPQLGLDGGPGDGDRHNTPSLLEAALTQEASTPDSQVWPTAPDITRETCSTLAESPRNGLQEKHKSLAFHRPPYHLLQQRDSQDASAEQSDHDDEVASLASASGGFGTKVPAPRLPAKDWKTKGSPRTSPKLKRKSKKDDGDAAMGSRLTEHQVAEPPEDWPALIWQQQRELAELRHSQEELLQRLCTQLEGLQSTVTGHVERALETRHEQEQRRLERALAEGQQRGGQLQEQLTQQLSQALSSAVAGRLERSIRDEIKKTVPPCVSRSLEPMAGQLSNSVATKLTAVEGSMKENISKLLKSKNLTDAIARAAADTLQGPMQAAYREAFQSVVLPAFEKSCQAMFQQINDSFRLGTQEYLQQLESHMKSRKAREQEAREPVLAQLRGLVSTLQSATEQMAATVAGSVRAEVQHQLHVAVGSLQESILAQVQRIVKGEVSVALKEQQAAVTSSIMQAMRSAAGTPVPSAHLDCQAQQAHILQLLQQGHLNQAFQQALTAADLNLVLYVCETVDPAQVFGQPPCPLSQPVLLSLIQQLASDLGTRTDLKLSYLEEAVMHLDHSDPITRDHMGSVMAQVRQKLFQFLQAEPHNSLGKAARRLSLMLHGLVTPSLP
UniProt Q7L8W6: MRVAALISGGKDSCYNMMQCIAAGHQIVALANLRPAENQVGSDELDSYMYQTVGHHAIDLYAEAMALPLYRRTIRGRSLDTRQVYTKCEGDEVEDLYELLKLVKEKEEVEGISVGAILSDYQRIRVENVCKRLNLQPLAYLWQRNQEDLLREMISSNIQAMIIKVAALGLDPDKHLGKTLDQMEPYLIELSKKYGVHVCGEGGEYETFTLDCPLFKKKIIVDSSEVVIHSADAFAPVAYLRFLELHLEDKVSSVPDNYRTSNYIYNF
UniProt P63167, whole entry, looked up: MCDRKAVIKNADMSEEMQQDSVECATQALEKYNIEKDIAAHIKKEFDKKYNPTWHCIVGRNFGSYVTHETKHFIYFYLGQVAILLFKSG
UniProt O00418: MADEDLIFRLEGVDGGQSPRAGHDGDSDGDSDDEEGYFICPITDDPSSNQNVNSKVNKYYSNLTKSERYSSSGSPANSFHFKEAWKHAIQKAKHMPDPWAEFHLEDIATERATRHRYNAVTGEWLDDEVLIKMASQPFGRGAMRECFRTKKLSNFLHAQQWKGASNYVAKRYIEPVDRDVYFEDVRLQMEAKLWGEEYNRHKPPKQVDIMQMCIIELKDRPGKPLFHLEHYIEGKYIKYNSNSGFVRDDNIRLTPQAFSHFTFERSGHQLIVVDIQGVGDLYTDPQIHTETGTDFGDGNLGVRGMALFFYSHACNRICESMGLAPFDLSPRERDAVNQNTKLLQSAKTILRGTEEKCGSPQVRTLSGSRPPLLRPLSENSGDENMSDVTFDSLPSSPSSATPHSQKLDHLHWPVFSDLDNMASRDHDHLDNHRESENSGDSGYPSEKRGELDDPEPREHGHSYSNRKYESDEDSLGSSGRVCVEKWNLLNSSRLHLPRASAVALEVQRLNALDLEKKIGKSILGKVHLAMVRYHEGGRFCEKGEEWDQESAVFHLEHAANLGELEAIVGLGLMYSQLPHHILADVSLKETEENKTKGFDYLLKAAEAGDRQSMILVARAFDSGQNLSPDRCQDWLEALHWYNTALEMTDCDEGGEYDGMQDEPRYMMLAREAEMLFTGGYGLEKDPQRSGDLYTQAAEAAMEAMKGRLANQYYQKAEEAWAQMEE

Legend:
Test in all cases: log2 fold change, soluble protein after heating vs DMSO (PISA); higher = thermal stabilisation; K562 lysate, 10 uM; active = over 0.2 and 3.5 SD of the protein, either way, in both replicates (recomputed)
ibrutinib = compound: C=CC(=O)N1CCC[C@@H](n2nc(-c3ccc(Oc4ccccc4)cc3)c3c(N)ncnc32)C1 [ibrutinib]
Procedure, shortened: (§1)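 Dounce homogenisation of K562 pellets in PBS pH 7.4 with 1 mM MgCl2 produced a crude extract, used at 1 mg/mL protein. Exposure to 10 μM compound lasted 30 min, and aliquots were then heated for 3 min across 48°C-58°C, pooled and brought to 0.5% NP-40 at 4°C. The supernatant after 21,000xg for 90 min was quantified by TMTpro 16plex LC-MS/MS with channel sums equalised. Duplicate values are given as log-two fold change in thermal stability relative to solvent controls.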

[1] = compound: CC(=O)c1cnc2ccc(-c3cc(Cl)c(O)c(Cl)c3)nc2c1N[C@H]1CC[C@H](CN(C)C)CC1
Procedure, shortened: as §1

ralimetinib = compound: CC(C)(C)Cn1c(N)nc2ccc(-c3[nH]c(C(C)(C)C)nc3-c3ccc(F)cc3)nc21 [ralimetinib]
Procedure, shortened: as §1

[2] = compound: CC(C)(O)CC(=O)NCCn1ccc2ncnc(Nc3ccc(Oc4cccc(C(F)(F)F)c4)c(Cl)c3)c21
Procedure, shortened: as §1

[3] = compound: CC(C)C1=C2N=C(C=C(N2N=C1)NCC3=CC=CC=C3)NCCCCCCN
Procedure, shortened: as §1

[4] = compound: CC1=C(C(CC(=O)N1)C2=CC=C(C=C2)C(F)(F)F)C(=O)NC3=C(C=C4C(=C3)C=NN4)F
Procedure, shortened: as §1

[5] = compound: CC1=C(C2=C(C=C1)C(=O)C3=CC=CC=C3N2CCCN)C
Procedure, shortened: as §1

[6] = compound: CC1=C(C=C(C=C1)NC(=O)C2=CC(=CC=C2)C(C)(C)C#N)NC3=CC4=C(C=C3)N=CN(C4=O)C
Procedure, shortened: as §1

[7] = compound: CC1=C(C=C(C=C1)NC(=O)C2=CC(=CC=C2)N(C)C)NC(=O)C3=CC=C(C=C3)O
Procedure, shortened: as §1

[8] = compound: CC1=CC=C(C=C1)SC2=C3C=C(SC3=CN=C2)C(=O)N
Procedure, shortened: as §1

Measured: log2 fold change

EEFSEC (UniProt P57772)
inactive: ibrutinib 0.031 | [1] -0.03 | ralimetinib 0.019 | [2] -0.013 | [3] -0.025 | [4] -0.011 | [5] 0.005 | [6] 0.011 | [7] 0.039 | [8] 0.006

EEF2 (UniProt P13639)
inactive: ibrutinib 0.013 | [1] -0.005 | ralimetinib -0.008 | [2] 0.003 | [3] -0.017 | [4] -0.015 | [5] -0.003 | [6] -0.006 | [7] -0.007 | [8] -0.006

DUS4L (UniProt O95620)
inactive: ibrutinib 0.134 | [1] 0.013 | ralimetinib -0.029 | [2] 0.04 | [3] 0.03 | [4] -0.039 | [5] -0.024 | [6] 0.033 | [7] -0.03 | [8] -0.029

2 records picked at random from those above:
DUS4L (UniProt O95620)
inactive: ibrutinib 0.134 | [1] 0.013 | ralimetinib -0.029 | [2] 0.04 | [3] 0.03 | [4] -0.039 | [5] -0.024 | [6] 0.033 | [7] -0.03 | [8] -0.029

EEF2 (UniProt P13639)
inactive: ibrutinib 0.013 | [1] -0.005 | ralimetinib -0.008 | [2] 0.003 | [3] -0.017 | [4] -0.015 | [5] -0.003 | [6] -0.006 | [7] -0.007 | [8] -0.006

Later entries

ECHDC1 (UniProt Q9NTX5)
inactive: ibrutinib -0.042 | [1] 0.006 | ralimetinib 0.005 | [2] 0.014 | [3] -0.023 | [4] 0.007 | [5] 0.009 | [6] 0.026 | [7] -0.018 | [8] 0.005

DR1 (UniProt Q01658)
inactive: ibrutinib 0.031 | [1] 0.004 | ralimetinib -0.018 | [2] -0.08 | [3] 0.009 | [4] 0 | [5] -0.01 | [6] 0.001 | [7] 0.017 | [8] -0.011

EDC3 (UniProt Q96F86)
inactive: ibrutinib 0.038 | [1] 0.016 | ralimetinib 0.004 | [2] 0.001 | [3] 0.046 | [4] 0.039 | [5] -0.014 | [6] 0.009 | [7] 0.019 | [8] -0.023

EFHD2 (UniProt Q96C19)
inactive: ibrutinib 0.007 | [1] 0.006 | ralimetinib 0.01 | [2] 0.009 | [3] -0.015 | [4] -0.03 | [5] -0.013 | [6] 0.006 | [7] -0.007 | [8] 0.008

DYNC1LI2 (UniProt O43237)
inactive: ibrutinib -0.014 | [1] 0.02 | ralimetinib 0 | [2] -0.08 | [3] 0.014 | [4] 0.212 | [5] -0.082 | [6] 0.112 | [7] 0.002 | [8] 0.006

DPP7 (UniProt Q9UHL4)
inactive: ibrutinib -0.006 | [1] 0.013 | ralimetinib 0.014 | [2] -0.019 | [3] -0.038 | [4] 0.011 | [5] -0.044 | [6] -0.013 | [7] -0.008 | [8] -0.011

EDC4 (UniProt Q6P2E9)
inactive: ibrutinib -0.001 | [1] 0.001 | ralimetinib 0.028 | [2] -0.009 | [3] -0.011 | [4] 0.004 | [5] -0.006 | [6] 0.006 | [7] 0 | [8] -0.019

EAF1 (UniProt Q96JC9)
inactive: ibrutinib -0.004 | [1] -0.037 | ralimetinib 0.037 | [2] -0.067 | [3] 0.028 | [4] 0.041 | [5] 0.003 | [6] 0.061 | [7] -0.015 | [8] -0.021

DPH6 (UniProt Q7L8W6)
inactive: ibrutinib -0.016 | [1] 0.029 | ralimetinib -0.018 | [2] 0.001 | [3] -0.032 | [4] 0.027 | [5] 0 | [6] -0.031 | [7] -0.015 | [8] -0.01

DYNLL1 (UniProt P63167)
inactive: ibrutinib 0.001 | [1] -0.052 | ralimetinib 0.032 | [2] -0.047 | [3] 0.004 | [4] -0.026 | [5] -0.01 | [6] 0.041 | [7] -0.035 | [8] 0.012

EEF2K (UniProt O00418)
inactive: ibrutinib -0.028 | [1] 0.039 | ralimetinib -0.008 | [2] 0.023 | [3] 0.061 | [4] 0.026 | [5] -0.008 | [6] 0.009 | [7] 0.029 | [8] 0.043
